Laboratory results: PubChem BioAssay AID743266 (National Center for Advancing Translational Sciences (NCATS), 2014)
Among all 410,000 compounds or so, about 310 (0.076%) were called active. The inconclusive results got no clear call from the source; some entries with a clear call stand among them for comparison. Calls come from the whole dose curve; as a rule, active = well fitted activation curve with a large enough effect; inconclusive = small, poorly fitted or top-dose-only effect, or another doubt; inactive = no such curve, though single readings can be large or run the other way. Potencies beside an inconclusive call are fits to weak or partial responses and may not hold up.
Note: nearly all actives have a fitted effect of over 55% in size.
Potency is the fitted concentration of half-maximal effect.

Amino acid sequences for entries named in this document (tags omitted). A change or cut given only in a name is not applied to a line headed by its entry.
UniProt Q03431: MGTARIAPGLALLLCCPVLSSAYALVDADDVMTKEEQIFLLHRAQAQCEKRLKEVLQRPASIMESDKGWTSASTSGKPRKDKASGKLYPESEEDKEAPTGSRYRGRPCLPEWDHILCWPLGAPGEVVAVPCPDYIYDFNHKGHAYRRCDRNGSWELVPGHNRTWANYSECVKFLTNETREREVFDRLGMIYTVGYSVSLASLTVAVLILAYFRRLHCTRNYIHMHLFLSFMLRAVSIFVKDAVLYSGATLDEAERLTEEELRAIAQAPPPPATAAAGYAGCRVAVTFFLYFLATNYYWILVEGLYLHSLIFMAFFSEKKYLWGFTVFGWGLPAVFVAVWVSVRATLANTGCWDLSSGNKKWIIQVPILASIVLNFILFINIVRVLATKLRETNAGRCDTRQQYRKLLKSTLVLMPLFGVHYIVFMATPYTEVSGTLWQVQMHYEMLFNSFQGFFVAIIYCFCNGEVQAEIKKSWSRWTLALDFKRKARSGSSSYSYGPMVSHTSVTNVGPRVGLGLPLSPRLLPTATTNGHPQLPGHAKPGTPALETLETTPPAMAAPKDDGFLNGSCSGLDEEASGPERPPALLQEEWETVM

These compounds were tested against Parathyroid hormone/parathyroid hormone-related peptide receptor (Homo sapiens) (UniProt Q03431) (assay: qHTS for PTHR1 Agonists: Primary Screen). Details: HEK293 GP2 PTHR1 cells, GloSensor cAMP luminescence, 1 h; activation: at 115 µM (top of the series) unless noted; series mostly up to 115 µM.
Method in brief: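 HEK-293-derived GP2 cells expressing PTHR1 and a GloSensor cAMP reporter, 3,000/well, plated overnight, given luciferin plus IBMX (each 0.5 mM as added) for 1 h at 37 °C, then compound for 1 h at 37 °C. Luminescence was read after 15 min at room temperature.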
For `Cc1cc(C(=O)NCCC2=CCCCC2)no1`, the Potency was “inactive”.
`O=C1C(SCCO)=C(SCCO)C(=O)c2ccccc21` was tested, and the Potency was “inactive”.
With `CCOC(=O)c1c(C)[nH]c(CCC(=O)Nc2cc(Cl)ccc2OC)c1C` the Potency was “inactive”.
In the case of `CC(C)C(NC(=O)c1ccc(F)cc1)C(=O)NCC1CCCO1` (stereo not drawn), the activation is reported as inconclusive: 35.4% [activator].
For `COc1cccc(NC(=O)Cn2c(=O)n(-c3ccc(Cl)cc3)c(=O)c3sc4ccccc4c32)c1`, the Potency was inconclusive: 112 µM [activator, single point].
For `O=C(COc1cccc2c1CCNC2=O)Nc1ccc(Cl)cc1`, the activation was inconclusive: -42.3% [activator].
`Cc1occc1-c1nnc(SCC(=O)NC2CC2)n1C` was tested, and the Potency was inconclusive: 126 µM [activator, single point].
`Nc1c(-c2nc(-c3ccncc3)no2)nnn1CC(=O)Nc1ccccc1` was tested, and the Potency was inconclusive: 15.8 µM [activator, full curve].
For `C=CCSc1nc(N)c(C(=O)Nc2ccccc2OC)cc1C(=O)Nc1ccccc1`, the Potency was inconclusive: 50.1 µM [activator, single point].
With `O=S(=O)(Oc1ccccc1N1CCCCC1)c1ccccc1` the Potency was “inactive”.
In the case of `O=C(CN(Cc1ccc(Cl)cc1)C(=O)CNS(=O)(=O)c1ccccc1)NCC1CCCO1` (stereo not drawn), the Potency is reported as inconclusive: 14.1 µM [activator, partial curve].
`N#CCC(=O)N/N=C/c1cccc(Oc2ccccc2)c1` was tested, and the Potency was “inactive”.
With `CCOc1ccc(NC(=O)c2c(NC(=O)Cc3ccccc3)sc3c2CCC(C)C3)cc1` (stereo not drawn) the Potency was inconclusive: 15.8 µM [activator, partial curve].
In the case of `COc1ccc(CN2CN(c3ccc(Cl)cc3)C(=O)N(n3cnnc3)C2)cc1`, the Potency is reported as “inactive”.
For `CC(=O)N(Cc1ccc(F)cc1)C1=C(NCCc2ccccc2)C(=O)c2ccccc2C1=O`, the Potency was “inactive”.
In the case of `CC(C)[C@H](NS(=O)(=O)c1ccccc1)C(=O)OCC(=O)NC1CCCCC1`, the activation is reported as inconclusive: -40.7% [activator].
For `COC(=O)c1ccc(OCC2c3cc(OC)c(OC)cc3CCN2C(=O)C(C)C)cc1` (stereo not drawn), the Potency was “inactive”.
With `COc1ccc(C(O)Cn2ccsc2=NC(C)=O)cc1` (stereo not drawn) the Potency was inconclusive: 126 µM [activator, single point].
In the case of `Cc1ccc(Cl)cc1N1CCN(C(=O)c2cc(S(=O)(=O)N3CCCC3)cn2C)CC1`, the Potency is reported as “inactive”.
With `COc1cccc(CN2CCN(Cc3cccc(Oc4ccccc4)c3)CC2)c1OC` the Potency was “inactive”.
In the case of `CC(C)C(NC(=O)c1ccccc1NC(=O)c1ccccc1)C(=O)NCCCn1ccnc1` (stereo not drawn), the activation is reported as inconclusive: 52.5% [activator].
In the case of `OC1CCN(CC(O)C(F)(F)F)CC1` (stereo not drawn), the Potency is reported as inconclusive: 100 µM [activator, single point].
`COC(=O)c1cc(=O)n(C2CC2)c(=NC2CC2)s1` was tested, and the Potency was inconclusive: 1.78 µM [activator, full curve, poor fit].
`CN1C(=O)c2ccc(NC(=O)CCS(=O)(=O)c3ccccc3)cc2C1=O` was tested, and the Potency was “inactive”.
With `Cn1ncc([N+](=O)[O-])c1C(=O)NCc1ccccc1` the Potency was inconclusive: 2.51 µM [activator, full curve, poor fit].
For `CCOc1ccc(NC(=O)CSc2nc(N)c(-c3ccccc3)c(=O)[nH]2)cc1`, the Potency was inconclusive: 141 µM [activator, single point].
In the case of `CCOc1ccccc1CNC(=O)C1CCN(S(=O)(=O)c2ccc3c(ccn3C)c2)CC1`, the Potency is reported as “inactive”.
In the case of `Cc1ccc(CN2C(=O)CSC2c2ccc(F)cc2)cc1` (stereo not drawn), the Potency is reported as “inactive”.
`CCc1nn(Cc2cc(C)ccc2C)c(=O)c2cc3cc(C)ccc3n12` was tested, and the Potency was inconclusive: 31.6 µM [activator, full curve, poor fit].
For `O=c1[nH]cnc2sc(-c3ccccc3)cc12`, the Potency was inconclusive: 35.5 µM [activator, single point].
`Cc1cccc(C(=O)NCC(=O)N2CCC2)c1` was tested, and the activation was inconclusive: 31.1% [activator].
In the case of `O=C(O)CCC(=O)Nc1ccc(S(=O)(=O)N2CCCC2)cc1`, the activation is reported as inconclusive: 33.9% [activator] [at 57.5 µM].
For `Cc1cc(S(=O)(=O)Nc2ccc(-c3ccc(N4CCCCCC4)nn3)cc2)c(C)cc1Cl`, the Potency was “inactive”.
With `O=C1c2ccccc2C(=O)N1CCc1c(-c2ccccc2)[nH]c2ccccc12` the Potency was “inactive”.
`C=CCn1c(=O)c2ccccc2n2c(SCc3nc(N)nc(Nc4ccccc4C)n3)nnc12` was tested, and the activation was inconclusive: 98% [activator] [at 57.5 µM].
`C=CCn1c(COc2cccc3ccc(C)nc23)nnc1SCC(N)=O` was tested, and the Potency was inconclusive: 1.41 µM [activator, full curve, poor fit].
In the case of `CCOc1ccc(C(=O)N2CCN(CC(=O)N3CCCC3)CC2)cc1OCC`, the Potency is reported as inconclusive: 141 µM [activator, partial curve, poor fit].
For `CC(=O)NC(c1cc(Cl)c2cccnc2c1O)C1CC1` (stereo not drawn), the Potency was inconclusive: 15.8 µM [activator, single point].
With `O=C(NC(Cc1c[nH]c2ccccc12)C(=O)NCCCN1CCOCC1)c1cccs1` (stereo not drawn) the Potency was inconclusive: 89.1 µM [activator, partial curve, poor fit].
For `COc1ccc2c(c1)CCc1c(C(=O)Nc3ccc(OC)c(OC)c3)noc1-2`, the Potency was inconclusive: 35.5 µM [activator, partial curve, poor fit].
With `CCOC(=O)Cn1ncc2c3ccccc3n(CC(=O)OCC)c2c1=O` the activation was inconclusive: 40.6% [activator].
For `COc1cccc(C(=O)Nc2ccc(NC(=O)C(C)(C)C)cn2)c1`, the Potency was “inactive”.
With `O=c1c2ccc(F)cc2sn1-c1ccccc1` the Potency was “inactive”.
In the case of `CN(CC(=O)N1CCN(Cc2ccccc2)CC1)C(=O)Cc1cccc2ccccc12`, the Potency is reported as “inactive”.
In the case of `COc1cc(C(=O)OCCCN2CCOCC2)ccc1O`, the Potency is reported as “inactive”.
For `O=C(c1cc(Br)ccc1Cl)N1CCCC1`, the Potency was inconclusive: 126 µM [activator, single point].
For `c1ccc2c(Nc3ccc(N4CCOCC4)cc3)nc(N3CCOCC3)nc2c1`, the activation was inconclusive: 36.8% [activator].
In the case of `CN1CCCN(C(=O)CNC(=O)c2ccccc2Br)CC1`, the Potency is reported as inconclusive: 126 µM [activator, single point].
With `O=C(O)c1ccc(NCc2cccnc2)c([N+](=O)[O-])c1` the Potency was inconclusive: 112 µM [activator, partial curve, poor fit].
With `Cc1ccc(-n2c(SCc3ccc([N+](=O)[O-])cc3)nc3ccccc3c2=O)cc1` the activation was inconclusive: 120% [activator] [at 57.5 µM].
With `CCOc1ccc(C2CC(=O)Nc3c2c(=O)nc(SCc2ccccc2C)n3C)cc1OC` (stereo not drawn) the Potency was “inactive”.
`Cn1c(N)c(C(=O)COC(=O)C2=NNC(=O)CC2)c(=O)n(C)c1=O` was tested, and the activation was inconclusive: 62.7% [activator].
With `COc1ccc(CCCC(=O)NCc2ccccc2)cc1C` the Potency was “inactive”.
In the case of `COc1ccccc1CN1CC(C(=O)NCCN(C)CCc2ccccc2)CCC1=O` (stereo not drawn), the activation is reported as inconclusive: 52.7% [activator].
For `CC(/C=C1\SC(=S)N(CCCC(=O)Nc2ccc(C(=O)O)c(O)c2)C1=O)=C\c1ccccc1`, the Potency was “inactive”.
In the case of `CCOC(=O)C1C(=O)CC(C)(O)C(C(=O)OCC)C1c1ccccc1OC` (stereo not drawn), the Potency is reported as inconclusive: 3.55 µM [activator, full curve].
For `COc1ccc(-c2cc(C(C)=O)c(C)n2CCC(=O)Nc2cc(Cl)ccc2C)cc1`, the activation was inconclusive: 35.1% [activator].
In the case of `CCOC(=O)c1c(C)[nH]c(C)c1S(=O)(=O)N(C)CC(=O)Nc1ccc(C)cc1C`, the Potency is reported as “inactive”.
`Cc1cc(C)cc(NC(=O)CSc2ccccc2)c1` was tested, and the Potency was inconclusive: 14.1 µM [activator, partial curve].
In the case of `CC(C)C(C(=O)NCC1CCCO1)N(Cc1ccco1)C(=O)CNS(=O)(=O)c1ccc(F)cc1` (stereo not drawn), the activation is reported as inconclusive: 49.1% [activator].
In the case of `CCCCCC(=O)NC(Nc1ccc(S(N)(=O)=O)cc1)C(Cl)(Cl)Cl` (stereo not drawn), the Potency is reported as “inactive”.
For `OC(CNC1Cc2ccccc2C1)c1ccccc1` (stereo not drawn), the Potency was inconclusive: 14.1 µM [activator, partial curve, poor fit].
`Cc1nc(SCC(=O)N(C)C2CCCCC2)[nH]c(=O)c1Cc1ccccc1` was tested, and the Potency was inconclusive: 44.7 µM [activator, single point].
For `CCC(Sc1nc(-c2ccccc2F)nc2c1Cc1c(CO)cnc(C)c1O2)C(=O)Nc1cc(C)ccc1C` (stereo not drawn), the activation was inconclusive: 35.5% [activator].
`Cc1ccc(C(=O)c2cn(CC(=O)Nc3ccc(C)cc3Cl)c3nc(C)ccc3c2=O)cc1` was tested, and the Potency was inconclusive: 100 µM [activator, single point].
For `CCCS(=O)(=O)N1CC(=O)N(c2ccc(Cl)cc2C)C(C)(C(=O)NC2CCCC2)C1` (stereo not drawn), the Potency was inconclusive: 89.1 µM [activator, single point].
With `O=C(CCN1C(=O)c2ccccc2C1=O)Nc1ccccc1C(=O)N1CCOCC1` the activation was inconclusive: 35.7% [activator] [at 57.5 µM].
For `COc1cc(OC)c(Nc2nc3ccc(C(=O)c4ccccc4)cc3n3c(C)nnc23)cc1Cl`, the Potency was inconclusive: 126 µM [activator, single point].
With `CCC(=O)Nc1cccc(C2=NOC3(C2)C[C@@H](C(N)=O)N(C(=O)C(c2ccccc2)c2ccccc2)C3)c1` (stereo partly drawn) the Potency was “inactive”.
`Cn1cnnc1Sc1ccc(/C=C(\CCC(=O)O)c2nc3ccccc3s2)cc1[N+](=O)[O-]` was tested, and the Potency was “inactive”.
For `CN(CCC(=O)Nc1ccc(Cl)cc1)Cc1ccccc1`, the activation was inconclusive: 40.4% [activator].
For `CN1/C(=C/C=N/NC(=O)c2ccc([N+](=O)[O-])cc2)C(C)(C)c2ccccc21`, the Potency was inconclusive: 89.1 µM [activator, single point].
For `Cn1nc(C(=O)Nc2ccc(F)c(Cl)c2)c2c1-c1ccccc1S(=O)(=O)C2`, the Potency was “inactive”.
